No constants are given. Whether binding was seen depends on the method and setting. Some binding calls cover weakened binding; strength is not graded here.
Assays:
PD-1 expressed on cells [1] = biological target: PD-1 expressed on cells (UniProt Q15116); test: flow cytometry (FACs analysis), U937 PD-1+ CD127+ cells co-cultured with U937 PD-1- CD127+ cells, detection with anti-human IgG PE, % cell binding
PD-1 expressed on cells [2] = biological target: PD-1 expressed on cells (UniProt Q15116); test: flow cytometry, co-culture of U937 PD-1+ and PD-1- cells, anti IgG-PE; positive control staining
PD-1 expressed on cells [3] = biological target: PD-1 expressed on cells (UniProt Q15116); test: flow cytometry, 1:1 co-culture of U937 PD-1+ and U937 PD-1- cells, detection with anti-human IgG PE, % positive cells [middle panel]

The chains behind the UniProt entries cited, without tags or fusion partners. Residues count along the entry.
UniProt Q15116, residues 25-288: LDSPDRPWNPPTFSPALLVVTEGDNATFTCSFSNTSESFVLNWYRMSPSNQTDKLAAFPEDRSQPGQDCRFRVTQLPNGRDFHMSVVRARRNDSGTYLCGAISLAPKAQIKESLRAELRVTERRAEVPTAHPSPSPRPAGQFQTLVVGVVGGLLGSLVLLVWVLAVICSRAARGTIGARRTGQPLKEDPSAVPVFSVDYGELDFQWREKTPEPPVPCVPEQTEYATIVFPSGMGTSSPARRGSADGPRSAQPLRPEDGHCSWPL

Measured: binding

B1: anti PD-1*2 (antibody, human IgG4 S228P, kappa, V domains shown)
VH: QIQLVQSGSELKKPGASVKVSCKASGYTFTHYAMNWVRQAPGQGLEWMGWINTNTGEPTYAQGFTGRFVFSLDTSVSTAYLQISSLKAEDTAVYYCAREREPGMDNWGQGTLVTVSS
VL: DVVMTQSPLSLPVTLGQPASISCRSSQSLVHANTNTYLEWYQQRPGQSPRLLIYKVSNRFSGVPDRFSGSGSGTDFTLKISRVEAEDVGVYYCFQGTHVPNTFGQGTKLEIKR
binds: all assays above

— patent US20240182571A1
